# Library screening results

Source: ChEMBL document CHEMBL3988442, “University of Dundee, Small-Polar-MMV Screening Library” (2021).

Results are given as percent effect.
The controls that fix the scale are not given in the record; negative values are as filed.
The compounds are a random part of those screened.
Two or more numbers in one place are separate tests of the same structure; such repeats can differ widely.

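Viability assay of Plasmodium falciparum sporozoites; the read-out is not stated. The concentration is filed as 10 mM, unlikely as a test dose, so the dose is not known. Higher reads as lower viability (inferred: compounds with an IC50 in retests scored well above the rest). Strong results were mostly tested again. Size under these conditions: about 34,000 compounds, about 280 of them at 50% or above in at least one test.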

| # | SMILES | percent effect |
|---|---|---|
| 1 | `CC(O)CN1CCN(C(=O)c2cccn2Cc2ccccc2)CC1` (centres undefined) | 15.62% |
| 2 | `COCCN1CCCC(c2nccnc2-c2cccc(Cl)c2)C1` (centres undefined) | 3.401% |
| 3 | `Cc1ccc(C(=O)NCC(O)c2cccc(F)c2)c(=O)[nH]1` (centres undefined) | -4.578% |
| 4 | `CCc1c(C)sc2nc3n(CC(N)=O)nc(SC)n3c(=O)c12` | -28.91% and -25.15% |
| 5 | `Cc1nn(C)c(Cl)c1C1CCCN1C(=O)c1cc(C2CC2)on1` (centres undefined) | 6.06% |
| 6 | `CC(C)(O)CN1CCN(C(=O)c2cc3ccccc3c(=O)[nH]2)CC1` | -16.8% |
| 7 | `COc1cccc(CC(=O)N2CCCC2c2nc(C)c(C)c(O)n2)c1` (centres undefined) | 2.84% |
| 8 | `COCCCNc1c(-c2ccc(Cl)cc2)c(=O)c1=O` | 0.08953% |
| 9 | `O=C(c1ccc[nH]1)N1CCN(C(c2ccccc2)C(F)(F)F)CC1` (centres undefined) | -2.305% |
| 10 | `CC(C)(C)c1ncc(C(=O)NCCNC(=O)Cc2ccccc2)s1` | 2.175% |
| 11 | `CC(NC(=O)NCCn1ccnc1)c1ccc2c(c1)OCCCO2` (centres undefined) | 9.103% |
| 12 | `Cc1ccc(-c2nc(CN3CCn4c(nnc4C4CC4)C3)co2)c(C)c1` | -0.1314% |
| 13 | `O=C(C1CCCc2[nH]ncc21)N1CCCCCC1` (centres undefined) | -25.14% |
| 14 | `Cc1nc(C)n(CC2CCCCN2CCOc2cccc(C#N)c2)n1` (centres undefined) | -0.7558% |
| 15 | `[H][C@@]12C[C@H](C(=O)N3CCCC3)[C@@]([H])(CN(C(=O)NC(C)C)C1)O2` | -2.129% |
| 16 | `Cc1ccc(CN2CCC(O)(Cn3nc(-c4cccs4)oc3=O)CC2)o1.O=C(O)CC(O)(CC(=O)O)C(=O)O` | 4.65% |
| 17 | `O=C(O)C(F)(F)F.O=S(=O)(C1CC1)N1CCOC2(CCCN(Cc3ccccn3)C2)C1` (centres undefined) | -11.79% |
| 18 | `CN(Cc1cnc2ccccc2c1)C(=O)C(c1ccccc1F)N(C)C` (centres undefined) | -21.69% |
| 19 | `COCC(=O)N1CCC(c2cc(-c3ccc(C)cc3)n[nH]2)C1` (centres undefined) | 13.17% |
| 20 | `CN(C)CCN(Cc1cccc(F)c1)C(=O)c1ccn(C)c(=O)c1` | -1.298% |
| 21 | `Cc1cc(CN2CCCC2Cn2cncn2)no1` (centres undefined) | 14.65% |
| 22 | `CCc1nccn1C1CCCN(C(=O)c2ccnc(N(C)C)c2)C1` (centres undefined) | -22.9% |
| 23 | `COc1c(CNC2CCCc3ccccc32)c(C)nn1C` (centres undefined) | 31.3% and 34.35% and 25.84% |
| 24 | `COc1cccc(N2CCN(C(=O)C(C)Oc3ccccc3)CC2=O)c1` (centres undefined) | 39.94% and 39.9% and 44.97% |
| 25 | `Cc1n[nH]c(C)c1C1COCCN1C(=O)c1cccc(F)c1F` (centres undefined) | 4.461% |
| 26 | `Cc1ccc(CN2CCC(NC(=O)c3scnc3C)CC2)cc1` | 5.11% |
| 27 | `O=C(CCCNc1ncccn1)N1CCCC(n2cccn2)C1` (centres undefined) | -3.58% |
| 28 | `CN(CCNC(=O)N1CCN(Cc2ccon2)CC1)C1CCCC1` | 2.146% |
| 29 | `Cc1cc(NC(=O)CCN2CCn3c(C)nnc3C2)no1` | -1.115% |
| 30 | `Cn1c(CN2CCN(CC3CC3)CC2)nnc1C1CCC1` | 13.11% |
| 31 | `Cc1nc2cc(=O)[nH]n2c(C)c1CC(=O)NC(C)C` | 0.111% |
| 32 | `Cc1cccc(C(=O)N2CCCSCC2CN2CCCC2)c1` (centres undefined) | 2.954% |
| 33 | `[H][C@]12CCN(C(=O)c3ccsc3)[C@@]1([H])CCC(=O)N2Cc1csc(C)n1` | -1.143% |
| 34 | `Cc1cncc(C(=O)N2CC[C@@]3(C[C@H](NS(C)(=O)=O)CCO3)C2)c1.O=C(O)C(F)(F)F` | 0.4296% |
| 35 | `Cn1ccc(-c2cc(C(=O)N3CCC(O)CC3)c3ccccn23)n1` | 3.809% |
| 36 | `O=C(CC1OCCc2ccccc21)NCC1(O)CCCCC1` (centres undefined) | -6.243% |
| 37 | `COCc1cncc2c1CCN(Cc1cccs1)C2.O=C(O)C(F)(F)F.O=C(O)C(F)(F)F` | 0.9025% |
| 38 | `Cc1cnn(CCNCc2csc(-c3ccccc3)n2)c1` | 13.67% |
| 39 | `CNS(=O)(=O)c1cccc(C(C)NCc2ccccc2OC)c1` (centres undefined) | -9.55% |
| 40 | `Cc1cnn(CC2CCCN2Cc2nnc(C)o2)c1` (centres undefined) | -1.156% |
| 41 | `Cc1cnn(CC2CCCN2C(=O)c2ccc3cc[nH]c3c2)c1` (centres undefined) | -29.36% |
| 42 | `CC(C)c1nnc2n1CCN(CCC(=O)Nc1sccc1C#N)C2` | 0.03409% |
| 43 | `c1ccc2sc(CN3CCOC(Cn4cncn4)C3)nc2c1` (centres undefined) | 3.764% and 60.57% and 65.28% |
| 44 | `Cc1ncc(-c2ccnc(N3CCCCC3)n2)c(=O)[nH]1` | -4.412% |
| 45 | `CCn1cc(CNc2ccc(N(C)CCOC)cn2)cn1` | 4.885% and 7.278% |
| 46 | `O=C(O)C(F)(F)F.[H][C@@]12CCN(C(=O)c3cccn3C)C[C@]1([H])[C@@H](CN(C)C)OC2` | -17.76% |
| 47 | `CCc1noc(CN2CCCC(Cn3nc(C)nc3C)C2)n1` (centres undefined) | 9.822% |
| 48 | `Cc1cccc(CN2CCC(c3nnsc3S(C)(=O)=O)CC2)c1` | 3.598% |
| 49 | `CC(=O)N1CCC2(CC1)CNc1c(F)cccc12.Cl` | 7.452% |
| 50 | `COc1cc(C(=O)N(CCC#N)Cc2ccccn2)ccc1C` | 1.961% |
| 51 | `CCc1ncnc2c1CCN(S(=O)(=O)c1ccccc1)CC2` | 11.48% |
| 52 | `Cl.FC(F)CNc1cnc(C2CCNCC2)cn1` | 8.043% |
| 53 | `CCN(CC)S(=O)(=O)N(CC)Cc1ccc2c(c1)OCCO2` | 0.03409% |
| 54 | `CCn1c(CN(C)C)nnc1C1CCN(Cc2ccc(Cl)cc2F)CC1` | 0.7895% |
| 55 | `CCCC(NC(=O)c1cscc1C)c1nnn[nH]1` (centres undefined) | -5.637% |
| 56 | `Cc1cc(NCc2cn(C)nc2-c2cccnc2)n(C)n1` | -4.67% |
| 57 | `CC(C)N(C)S(=O)(=O)N(C)Cc1ccc2c(c1)OCCO2` | -4.33% |
| 58 | `Cc1ccc(NC2CCN(C(=O)Cc3csc(C)n3)CC2)nn1` | 8.96% |
| 59 | `Cn1ccnc1CNC(=O)N(CCCO)C1CCCc2ccccc21` (centres undefined) | -4.848% |
| 60 | `CNc1cnc(CC2COCCN(Cc3ccccc3)C2)cn1` (centres undefined) | 7.819% |
| 61 | `CNC(=O)c1cnc(C)nc1CCNC(=O)CCc1ccccc1` | 9.558% |
| 62 | `COCCN1CCC(CNC(=O)C2(c3ccc(Br)cc3)CCCC2)C1` (centres undefined) | 3.971% |
| 63 | `Cc1ccoc1C(=O)N1CCc2ncnc(-c3cnn(C)c3)c2CC1` | 0.2632% |
| 64 | `CC1CCCN(S(=O)(=O)NCc2ccccc2Cn2cncn2)C1` (centres undefined) | 9.692% |
| 65 | `Cn1cccc1C(=O)NCc1cn2c(n1)CN(CC1CCOC1)CC2` (centres undefined) | 13.45% |
| 66 | `O=C(O)C(F)(F)F.[H][C@@]12CCN(C(=O)c3cnn(C)c3)[C@@]1([H])CCN2Cc1cccc(C#N)c1` | -12.59% |
| 67 | `N#CC1(NC(=O)COC(=O)Cn2cccn2)CCCC1` | -7.105% |
| 68 | `[H][C@]12CCN(C(=O)COC)CC[C@@]1([H])S(=O)(=O)N(Cc1cccc(Cl)c1)C2` | 9.199% |
| 69 | `CCS(=O)(=O)c1ncc(CN(C)CCc2ccccn2)n1CCOC` | -2.368% |
| 70 | `O=C(Cn1cc(Cl)cn1)N1CCNC1=O` | 4.118% |
| 71 | `COCc1nc(C(=O)NS(=O)(=O)c2c(C)c(C)cc(C)c2C)cs1` | 4.07% |
| 72 | `CC(C)NC(=O)c1ccc2c(c1)C(c1nc[nH]n1)CN2S(C)(=O)=O` (centres undefined) | 0% |
| 73 | `COCCn1cc2c(n1)C(CNCc1ccsc1)OCC2.O=C(O)C(F)(F)F` (centres undefined) | 4.298% |
| 74 | `CCc1nc(C2CCCN2Cc2nccn2CC(F)(F)F)no1` (centres undefined) | 12.24% |
| 75 | `Cc1ncccc1CNCC1CCCN1c1cccnn1` (centres undefined) | 4.186% |
| 76 | `COc1cc(F)ccc1C(C(=O)O)N(C)CCN1CCOCC1` (centres undefined) | -14.03% |
| 77 | `COc1ccc(C2CCCN2Cc2nc3c(cnn3C)c(=O)[nH]2)cc1` (centres undefined) | 5.282% |
| 78 | `Cc1noc(C)c1CCC(=O)N1CCN(Cc2cscn2)CC1` | -2.814% |
| 79 | `O=C(O)C(F)(F)F.O=C(c1cccnc1)N1CCc2ncnc(C3CCOC3)c2CC1` (centres undefined) | -6.113% |
| 80 | `O=C(NCC1CCOC1)N1CCN(Cc2ccc3c(c2)CCO3)CC1` (centres undefined) | 1.874% |
| 81 | `O=C(Nc1ccccc1F)C1=NN(c2ccccc2)C(=O)CN1` | 4.108% |
| 82 | `O=C(O)CC(O)(CC(=O)O)C(=O)O.c1ccc(CC2CCN(Cc3ccnc(-c4cccnc4)n3)CC2)cc1` | -29.98% |
| 83 | `N#Cc1cc2c(nc1SCc1cc(O)nc(O)n1)CCCC2` | 1.435% |
| 84 | `O=C(O)C(F)(F)F.[H][C@@]12CCCO[C@]1([H])[C@@H](NC(=O)C1CC1)CN2Cc1cccc(C#N)c1` | -3.971% |
| 85 | `CC(C)C(=O)N1CCC(C)(c2cc(O)[nH]n2)CC1` | -0.8117% |
| 86 | `COCCNC(=O)CN1CC=C(n2c(C)nc(=O)c3ccccc32)CC1` | 3.424% |
| 87 | `[H][C@]12C[C@@H](Cn3cncn3)N(C(C)=O)[C@@]1([H])CCN(S(C)(=O)=O)C2` | -6.107% |
| 88 | `CNC(=O)CCc1cc(C)nc(C2CCCN2)c1` (centres undefined) | -6.991% |

The last 11 entries again:

SMILES,percent effect
Cc1noc(C)c1CCC(=O)N1CCN(Cc2cscn2)CC1,-2.814%
O=C(O)C(F)(F)F.O=C(c1cccnc1)N1CCc2ncnc(C3CCOC3)c2CC1 (centres undefined),-6.113%
O=C(NCC1CCOC1)N1CCN(Cc2ccc3c(c2)CCO3)CC1 (centres undefined),1.874%
O=C(Nc1ccccc1F)C1=NN(c2ccccc2)C(=O)CN1,4.108%
O=C(O)CC(O)(CC(=O)O)C(=O)O.c1ccc(CC2CCN(Cc3ccnc(-c4cccnc4)n3)CC2)cc1,-29.98%
N#Cc1cc2c(nc1SCc1cc(O)nc(O)n1)CCCC2,1.435%
O=C(O)C(F)(F)F.[H][C@@]12CCCO[C@]1([H])[C@@H](NC(=O)C1CC1)CN2Cc1cccc(C#N)c1,-3.971%
CC(C)C(=O)N1CCC(C)(c2cc(O)[nH]n2)CC1,-0.8117%
COCCNC(=O)CN1CC=C(n2c(C)nc(=O)c3ccccc32)CC1,3.424%
[H][C@]12C[C@@H](Cn3cncn3)N(C(C)=O)[C@@]1([H])CCN(S(C)(=O)=O)C2,-6.107%
CNC(=O)CCc1cc(C)nc(C2CCCN2)c1 (centres undefined),-6.991%